Tests used:
peptide made by a vendor = conditions: whole synthesis, analytical RP-HPLC
[1] = general procedure: Fmoc solid-phase peptide synthesis; conditions: whole synthesis, analytical RP-HPLC

Substance	final HPLC purity (peptide made by a vendor)	final HPLC purity [1]
DOTA-(4-amino-3-iodo)-D-Phe-c[Cys-(3-iodo)-Tyr-D-Trp-Lys-Val-Cys]-Thr-NH2	100%	–
DOTA-D-Phe-c[Cys-1-NaI-D-Trp-Lys-Thr-Cys]Thr(ol)	–	96%

— article PMC7570871 (Molecules, 2020)
